From US20240150475A1 (Molecular Partners, published 2024)
These are yes or no findings as the source states them, for the method shown. Some entries that bind do so weakly or less than the wild type.

Legend:
[1] = target: T1, truncated CD123 target (D2/D3 domains), D2-D3-hCD123 (human) (UniProt P26951); assay: HTRF, purified DARPin, truncated D2-D3-hCD123, hIgG-d2 and anti-His-Tb
T1 sequence (looked up): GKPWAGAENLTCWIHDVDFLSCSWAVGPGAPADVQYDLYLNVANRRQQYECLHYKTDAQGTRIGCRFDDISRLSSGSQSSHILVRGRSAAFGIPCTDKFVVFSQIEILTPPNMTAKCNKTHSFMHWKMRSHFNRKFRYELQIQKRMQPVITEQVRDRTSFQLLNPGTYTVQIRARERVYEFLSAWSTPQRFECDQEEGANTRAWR

[2] = target: T1, truncated CD123 target (D2/D3 domains), D2-D3-hCD123 (human); assay: HTRF, purified DARPin protein with truncated D2-D3-hCD123, hIgG-d2 and anti-His-Tb

B1: DARPin® protein #1 (in TCE format) (designed binder, not shown: small tags and cut ends)
chain: MRGSHHHHHHGSDLGKKLLEAALEGQDDEVRELLKAGADVNAKDQEGYTPLHLAAALGHLEIVEVLLKAGADVNAKDSIGRTPLHLAAYKGHLEIVEVLLKAGADVNAQDLLGETPADLAAEQGHEDIAEVLQKAA
Question: B1 was tested. Which binding [1] did it give?
Answer: The binding was “binds”.

Question: What about the binding [2] of the same binder?
Answer: Its binding is “binds”.
